Assay results from patent publication US20090233074A1 (ARTIFICIAL CELL TECHNOLOGIES, published 2009).
These are yes or no findings as the source states them, for the method shown. Some binding calls cover weakened binding; strength is not graded here.

Target: T1, LN3 (long negative designed polypeptide)
T1 sequence (peptide): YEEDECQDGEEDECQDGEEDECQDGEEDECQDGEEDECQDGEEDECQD
Assay: QCM, layer-by-layer assembly, 10 mM Tris pH 7.4, 10 mM NaCl, 1 mM DTT, 16 layers

YKGKKSCHGKGKKSCHGKGKKSCHGKGKKSCH [SP5 (positive designed polypeptide)]
binding: binds
